Measured values: the supplement of paper PMC7666118
The list shows a part of the results.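 Rule for the calls: active = dose-dependent thermal stabilisation significant by F-test of dose-response against flat model at 10% FDR; inactive = not significant.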

Amino acid sequences for entries named in this document (tags omitted). A change or cut given only in a name is not applied to a line headed by its entry.
UniProt Q8NF64: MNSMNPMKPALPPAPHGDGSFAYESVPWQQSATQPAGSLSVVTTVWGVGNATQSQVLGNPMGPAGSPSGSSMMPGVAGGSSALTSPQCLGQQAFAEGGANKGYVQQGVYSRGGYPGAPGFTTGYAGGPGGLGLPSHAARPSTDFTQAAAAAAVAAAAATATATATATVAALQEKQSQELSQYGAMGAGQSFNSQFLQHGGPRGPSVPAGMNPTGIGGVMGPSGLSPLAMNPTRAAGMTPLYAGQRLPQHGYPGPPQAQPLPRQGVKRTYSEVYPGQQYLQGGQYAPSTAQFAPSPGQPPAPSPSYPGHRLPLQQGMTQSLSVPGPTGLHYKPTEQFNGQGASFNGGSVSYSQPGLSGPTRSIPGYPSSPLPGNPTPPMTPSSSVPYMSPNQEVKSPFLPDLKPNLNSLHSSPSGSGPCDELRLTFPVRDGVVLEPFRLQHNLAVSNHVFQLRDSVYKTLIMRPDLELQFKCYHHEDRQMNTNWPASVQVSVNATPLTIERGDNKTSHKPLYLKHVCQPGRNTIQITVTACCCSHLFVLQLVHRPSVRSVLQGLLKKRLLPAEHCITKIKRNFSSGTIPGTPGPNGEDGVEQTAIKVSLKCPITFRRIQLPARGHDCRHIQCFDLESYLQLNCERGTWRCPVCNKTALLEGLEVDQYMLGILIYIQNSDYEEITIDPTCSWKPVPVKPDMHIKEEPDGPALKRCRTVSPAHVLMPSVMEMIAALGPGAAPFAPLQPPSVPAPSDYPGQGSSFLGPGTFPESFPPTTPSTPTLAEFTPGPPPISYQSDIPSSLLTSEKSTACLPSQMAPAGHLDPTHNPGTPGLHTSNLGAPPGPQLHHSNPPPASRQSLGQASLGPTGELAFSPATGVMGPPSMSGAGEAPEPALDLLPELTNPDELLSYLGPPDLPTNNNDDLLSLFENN
UniProt Q15942: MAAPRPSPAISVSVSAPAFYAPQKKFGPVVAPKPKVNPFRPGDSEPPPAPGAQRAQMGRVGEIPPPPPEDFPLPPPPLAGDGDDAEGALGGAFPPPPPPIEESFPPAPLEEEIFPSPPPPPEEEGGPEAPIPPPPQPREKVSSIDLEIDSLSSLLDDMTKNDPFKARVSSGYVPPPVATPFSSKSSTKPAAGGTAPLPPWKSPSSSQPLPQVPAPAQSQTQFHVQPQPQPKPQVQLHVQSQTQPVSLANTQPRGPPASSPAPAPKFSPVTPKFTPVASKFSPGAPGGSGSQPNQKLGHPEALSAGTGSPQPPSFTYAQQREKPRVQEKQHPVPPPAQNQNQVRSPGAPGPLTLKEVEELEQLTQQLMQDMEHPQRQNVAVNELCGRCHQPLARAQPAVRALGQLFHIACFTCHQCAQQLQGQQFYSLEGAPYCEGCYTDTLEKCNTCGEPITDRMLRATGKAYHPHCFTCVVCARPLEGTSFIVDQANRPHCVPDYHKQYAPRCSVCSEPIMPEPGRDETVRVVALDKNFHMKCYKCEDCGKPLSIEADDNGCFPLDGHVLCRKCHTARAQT
UniProt Q9Y3S2: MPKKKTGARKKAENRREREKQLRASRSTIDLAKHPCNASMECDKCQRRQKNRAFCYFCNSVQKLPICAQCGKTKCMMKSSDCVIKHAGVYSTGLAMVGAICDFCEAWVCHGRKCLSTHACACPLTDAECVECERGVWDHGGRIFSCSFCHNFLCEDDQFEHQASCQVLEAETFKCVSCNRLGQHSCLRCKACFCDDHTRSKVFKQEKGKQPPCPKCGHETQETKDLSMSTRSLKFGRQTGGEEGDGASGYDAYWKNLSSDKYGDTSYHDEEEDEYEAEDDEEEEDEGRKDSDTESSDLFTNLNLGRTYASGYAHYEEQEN
UniProt Q969J2: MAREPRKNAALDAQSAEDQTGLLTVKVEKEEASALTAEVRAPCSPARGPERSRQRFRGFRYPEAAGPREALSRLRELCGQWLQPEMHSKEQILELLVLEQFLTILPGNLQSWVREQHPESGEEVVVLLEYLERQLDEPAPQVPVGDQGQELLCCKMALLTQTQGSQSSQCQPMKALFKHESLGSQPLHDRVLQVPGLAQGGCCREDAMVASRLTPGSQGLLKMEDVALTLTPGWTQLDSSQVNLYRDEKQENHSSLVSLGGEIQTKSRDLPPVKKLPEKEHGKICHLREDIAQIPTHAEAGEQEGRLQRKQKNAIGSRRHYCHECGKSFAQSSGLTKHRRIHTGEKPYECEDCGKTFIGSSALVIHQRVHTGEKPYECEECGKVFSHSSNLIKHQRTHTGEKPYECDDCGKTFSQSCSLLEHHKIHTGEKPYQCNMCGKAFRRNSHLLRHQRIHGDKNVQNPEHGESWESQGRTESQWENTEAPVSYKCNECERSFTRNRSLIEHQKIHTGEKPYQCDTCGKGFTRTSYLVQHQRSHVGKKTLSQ
UniProt Q96K58: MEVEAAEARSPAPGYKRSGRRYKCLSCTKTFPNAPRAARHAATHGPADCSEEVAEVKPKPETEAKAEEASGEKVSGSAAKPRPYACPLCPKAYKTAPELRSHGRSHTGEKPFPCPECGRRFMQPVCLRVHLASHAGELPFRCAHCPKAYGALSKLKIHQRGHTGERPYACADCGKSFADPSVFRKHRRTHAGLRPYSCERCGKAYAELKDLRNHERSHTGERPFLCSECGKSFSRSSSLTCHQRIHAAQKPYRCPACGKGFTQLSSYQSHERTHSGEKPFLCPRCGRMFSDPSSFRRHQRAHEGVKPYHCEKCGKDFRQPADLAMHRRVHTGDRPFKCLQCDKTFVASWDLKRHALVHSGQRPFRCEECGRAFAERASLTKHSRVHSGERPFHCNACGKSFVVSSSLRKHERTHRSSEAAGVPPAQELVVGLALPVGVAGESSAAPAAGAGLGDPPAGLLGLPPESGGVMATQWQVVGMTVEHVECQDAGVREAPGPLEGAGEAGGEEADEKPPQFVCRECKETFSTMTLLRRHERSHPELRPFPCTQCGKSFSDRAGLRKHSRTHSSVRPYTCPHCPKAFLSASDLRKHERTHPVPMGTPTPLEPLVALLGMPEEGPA
UniProt Q6N043: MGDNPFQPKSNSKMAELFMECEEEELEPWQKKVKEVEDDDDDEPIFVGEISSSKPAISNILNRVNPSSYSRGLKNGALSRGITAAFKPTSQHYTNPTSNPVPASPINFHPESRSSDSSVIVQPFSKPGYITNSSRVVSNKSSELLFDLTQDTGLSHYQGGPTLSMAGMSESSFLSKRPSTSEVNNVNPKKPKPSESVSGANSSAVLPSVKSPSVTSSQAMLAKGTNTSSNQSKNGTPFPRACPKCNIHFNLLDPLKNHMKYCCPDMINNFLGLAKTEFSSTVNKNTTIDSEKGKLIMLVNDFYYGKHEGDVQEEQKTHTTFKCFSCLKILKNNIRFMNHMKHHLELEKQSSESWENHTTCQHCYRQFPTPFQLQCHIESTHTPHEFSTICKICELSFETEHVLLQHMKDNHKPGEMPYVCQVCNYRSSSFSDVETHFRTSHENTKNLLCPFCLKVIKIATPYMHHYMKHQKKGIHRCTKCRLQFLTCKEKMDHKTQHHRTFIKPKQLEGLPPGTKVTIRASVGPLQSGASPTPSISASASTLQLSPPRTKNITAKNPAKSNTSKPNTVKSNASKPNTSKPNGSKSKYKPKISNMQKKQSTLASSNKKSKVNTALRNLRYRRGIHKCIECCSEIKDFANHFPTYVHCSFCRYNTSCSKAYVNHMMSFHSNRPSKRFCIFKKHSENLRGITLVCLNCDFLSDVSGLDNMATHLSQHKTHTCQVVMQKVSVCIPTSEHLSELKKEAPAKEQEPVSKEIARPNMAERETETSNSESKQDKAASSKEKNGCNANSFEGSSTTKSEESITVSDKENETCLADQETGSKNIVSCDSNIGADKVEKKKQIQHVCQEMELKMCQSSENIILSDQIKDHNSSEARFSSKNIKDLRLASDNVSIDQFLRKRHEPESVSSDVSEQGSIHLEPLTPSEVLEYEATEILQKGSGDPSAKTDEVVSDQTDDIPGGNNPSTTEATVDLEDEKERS
UniProt Q8TF68: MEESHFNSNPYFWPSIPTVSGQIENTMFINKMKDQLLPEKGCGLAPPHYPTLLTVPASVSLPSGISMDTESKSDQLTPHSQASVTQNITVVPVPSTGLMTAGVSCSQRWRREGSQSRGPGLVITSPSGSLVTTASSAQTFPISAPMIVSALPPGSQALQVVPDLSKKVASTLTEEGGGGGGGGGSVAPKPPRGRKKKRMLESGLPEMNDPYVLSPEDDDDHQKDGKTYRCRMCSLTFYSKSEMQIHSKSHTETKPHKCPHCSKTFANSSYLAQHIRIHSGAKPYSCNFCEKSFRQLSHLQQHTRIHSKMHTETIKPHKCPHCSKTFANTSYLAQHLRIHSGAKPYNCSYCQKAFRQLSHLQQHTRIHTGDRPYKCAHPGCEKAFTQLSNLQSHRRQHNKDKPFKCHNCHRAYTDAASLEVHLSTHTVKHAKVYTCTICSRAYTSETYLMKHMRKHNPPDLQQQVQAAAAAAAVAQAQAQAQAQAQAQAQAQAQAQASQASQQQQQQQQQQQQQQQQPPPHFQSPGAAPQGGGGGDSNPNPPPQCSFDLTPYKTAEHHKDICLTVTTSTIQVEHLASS
UniProt Q9UL40: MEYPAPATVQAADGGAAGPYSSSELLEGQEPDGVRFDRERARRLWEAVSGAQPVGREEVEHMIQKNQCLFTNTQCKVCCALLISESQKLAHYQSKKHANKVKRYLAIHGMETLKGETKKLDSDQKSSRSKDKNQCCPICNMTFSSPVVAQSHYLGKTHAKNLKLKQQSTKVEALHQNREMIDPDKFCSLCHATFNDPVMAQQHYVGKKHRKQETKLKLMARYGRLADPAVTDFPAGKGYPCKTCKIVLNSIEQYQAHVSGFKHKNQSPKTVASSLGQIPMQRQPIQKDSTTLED
UniProt Q9P2F9: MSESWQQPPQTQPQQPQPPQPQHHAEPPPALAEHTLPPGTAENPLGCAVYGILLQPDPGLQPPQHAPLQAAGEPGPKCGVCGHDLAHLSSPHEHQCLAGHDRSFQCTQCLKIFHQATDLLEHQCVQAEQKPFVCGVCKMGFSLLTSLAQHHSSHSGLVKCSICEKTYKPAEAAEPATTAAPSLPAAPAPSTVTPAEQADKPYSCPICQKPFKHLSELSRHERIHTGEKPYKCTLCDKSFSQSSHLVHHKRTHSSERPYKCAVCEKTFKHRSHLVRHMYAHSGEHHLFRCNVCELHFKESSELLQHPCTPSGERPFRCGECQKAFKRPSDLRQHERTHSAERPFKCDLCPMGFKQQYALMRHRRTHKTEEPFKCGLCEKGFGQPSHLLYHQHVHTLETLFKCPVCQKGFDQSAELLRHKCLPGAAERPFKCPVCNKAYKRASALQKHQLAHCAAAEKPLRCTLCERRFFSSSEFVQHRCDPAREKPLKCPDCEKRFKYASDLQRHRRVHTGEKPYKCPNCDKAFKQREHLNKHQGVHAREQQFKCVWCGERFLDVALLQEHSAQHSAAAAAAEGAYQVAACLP
UniProt Q5BKZ1: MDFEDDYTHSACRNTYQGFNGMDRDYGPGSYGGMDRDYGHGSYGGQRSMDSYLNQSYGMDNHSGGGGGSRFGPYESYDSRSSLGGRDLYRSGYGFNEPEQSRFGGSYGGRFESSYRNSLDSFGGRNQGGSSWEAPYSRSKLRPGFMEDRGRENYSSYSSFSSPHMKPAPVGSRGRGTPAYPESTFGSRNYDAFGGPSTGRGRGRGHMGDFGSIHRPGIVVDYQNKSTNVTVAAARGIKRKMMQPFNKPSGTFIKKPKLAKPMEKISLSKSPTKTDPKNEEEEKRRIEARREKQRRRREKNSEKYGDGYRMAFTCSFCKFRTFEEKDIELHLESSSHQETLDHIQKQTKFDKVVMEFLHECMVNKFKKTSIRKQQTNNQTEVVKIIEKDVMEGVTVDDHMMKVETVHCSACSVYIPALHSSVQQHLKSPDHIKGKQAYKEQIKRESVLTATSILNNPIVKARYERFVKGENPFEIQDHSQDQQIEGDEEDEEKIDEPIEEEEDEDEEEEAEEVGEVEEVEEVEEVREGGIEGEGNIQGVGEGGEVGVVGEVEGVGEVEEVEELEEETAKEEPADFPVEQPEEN

Compound: Nc1nc2c(ncn2[C@@H]2O[C@H](COP(=O)(O)OP(=O)(O)OP(=O)(O)O)[C@@H](O)[C@H]2O)c(=O)[nH]1
Experiment: dose-dependent thermal stabilisation call (2D-TPP, DLPTP, 10% FDR) (binary (1 = stabilised)); higher = stabilised by the compound
Conditions: system: Jurkat gel-filtered lysate; concentration range 1-500 µM
Method: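 2D thermal proteome profiling in gel-filtered Jurkat E6.1 lysate (2 mg/ml) treated with NaGTP (0, 1, 10, 100, 500 uM) for 10 min at room temperature, then heated 3 min at one of 12 temperatures (42-63.9 C). Soluble protein was quantified by TMT10 MS. The value is the DLPTP call of the paper: dose-dependent thermal stabilisation over all temperatures at 10% FDR (F-test of a dose-response against a flat model); one experiment, one call per tested protein.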

dose-dependent thermal stabilisation call, inactive:
ZMIZ2 (UniProt Q8NF64) 0
ZYX (UniProt Q15942) 0
ZNF330 (UniProt Q9Y3S2) 0
ZKSCAN4 (UniProt Q969J2) 0
ZNF668 (UniProt Q96K58) 0
ZNF280D (UniProt Q6N043) 0
ZNF384 (UniProt Q8TF68) 0
ZNF346 (UniProt Q9UL40) 0
ZNF319 (UniProt Q9P2F9) 0
ZNF326 (UniProt Q5BKZ1) 0

Quoted from the entries so far (two entries):
dose-dependent thermal stabilisation call, inactive:
ZMIZ2 (UniProt Q8NF64) 0
ZYX (UniProt Q15942) 0
